Some of the results follow.
compound: NC(=O)Nc1cc(-c2cccc(F)c2)sc1C(=O)N[C@H]1CCCNC1; test: log2 fold change, soluble protein after heating vs DMSO (PISA); higher = thermal stabilisation; K562 lysate, 10 uM; active = over 0.2 and 3.5 SD of the protein, either way, in both replicates (recomputed)
In short: (§1)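 Thermal stability, expressed as log-two fold change relative to solvent controls, is given from duplicates. Crude K562 extract in PBS pH 7.4 with 1 mM MgCl2, at 1 mg/mL protein, was treated with 10 μM compound for 30 min and heated in aliquots for 3 min across 48°C-58°C. After pooling, adjustment to 0.5% NP-40 at 4°C and centrifugation at 21,000xg for 90 min, supernatant protein was measured by TMTpro 16plex LC-MS/MS with channel sums equalised.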

By UniProt entry, the sequences of proteins in these tests, tags left out. Where a name states a change or a piece, a line headed by the entry shows the natural chain unless it says otherwise.
UniProt P55199: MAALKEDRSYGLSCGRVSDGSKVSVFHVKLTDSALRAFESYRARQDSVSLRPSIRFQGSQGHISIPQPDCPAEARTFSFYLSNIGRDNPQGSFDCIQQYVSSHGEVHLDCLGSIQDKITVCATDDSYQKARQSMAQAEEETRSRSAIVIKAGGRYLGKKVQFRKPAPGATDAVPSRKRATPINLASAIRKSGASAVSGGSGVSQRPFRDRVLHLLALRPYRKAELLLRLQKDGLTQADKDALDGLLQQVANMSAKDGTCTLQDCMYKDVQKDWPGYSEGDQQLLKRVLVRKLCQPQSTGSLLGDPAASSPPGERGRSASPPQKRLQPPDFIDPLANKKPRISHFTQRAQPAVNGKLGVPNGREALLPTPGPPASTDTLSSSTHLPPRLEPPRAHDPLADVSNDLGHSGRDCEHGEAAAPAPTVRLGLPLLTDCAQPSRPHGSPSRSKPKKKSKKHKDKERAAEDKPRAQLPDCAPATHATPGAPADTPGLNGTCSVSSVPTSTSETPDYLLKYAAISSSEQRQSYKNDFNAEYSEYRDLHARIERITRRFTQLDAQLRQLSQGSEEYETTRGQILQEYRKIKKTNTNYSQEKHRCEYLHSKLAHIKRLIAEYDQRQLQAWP
UniProt P34913, whole entry, looked up: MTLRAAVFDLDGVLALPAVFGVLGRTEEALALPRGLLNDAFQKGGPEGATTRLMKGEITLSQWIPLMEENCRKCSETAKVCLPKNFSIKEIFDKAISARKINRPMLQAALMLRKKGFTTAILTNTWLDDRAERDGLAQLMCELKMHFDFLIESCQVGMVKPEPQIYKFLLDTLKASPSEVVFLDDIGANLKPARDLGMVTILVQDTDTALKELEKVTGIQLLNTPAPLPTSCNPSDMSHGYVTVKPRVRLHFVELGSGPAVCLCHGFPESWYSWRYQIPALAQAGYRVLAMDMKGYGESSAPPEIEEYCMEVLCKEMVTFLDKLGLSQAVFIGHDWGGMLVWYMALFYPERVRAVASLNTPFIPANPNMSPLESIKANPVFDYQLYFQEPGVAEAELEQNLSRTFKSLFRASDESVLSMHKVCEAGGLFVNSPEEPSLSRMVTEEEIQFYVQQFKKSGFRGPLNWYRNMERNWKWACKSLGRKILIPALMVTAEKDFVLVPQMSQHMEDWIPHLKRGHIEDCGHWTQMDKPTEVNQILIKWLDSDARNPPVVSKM
UniProt O75356: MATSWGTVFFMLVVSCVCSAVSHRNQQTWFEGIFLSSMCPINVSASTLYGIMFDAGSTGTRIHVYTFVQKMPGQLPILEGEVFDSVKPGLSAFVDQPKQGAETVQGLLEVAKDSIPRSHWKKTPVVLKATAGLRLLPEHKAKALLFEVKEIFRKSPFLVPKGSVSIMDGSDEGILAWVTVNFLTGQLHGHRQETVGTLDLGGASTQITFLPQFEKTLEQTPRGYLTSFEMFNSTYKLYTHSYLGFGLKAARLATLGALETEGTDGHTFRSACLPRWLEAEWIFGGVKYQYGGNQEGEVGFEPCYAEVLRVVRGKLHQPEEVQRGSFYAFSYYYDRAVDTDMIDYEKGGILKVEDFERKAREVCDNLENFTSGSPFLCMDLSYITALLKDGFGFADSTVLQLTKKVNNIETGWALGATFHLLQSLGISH
UniProt P20042, whole entry, looked up: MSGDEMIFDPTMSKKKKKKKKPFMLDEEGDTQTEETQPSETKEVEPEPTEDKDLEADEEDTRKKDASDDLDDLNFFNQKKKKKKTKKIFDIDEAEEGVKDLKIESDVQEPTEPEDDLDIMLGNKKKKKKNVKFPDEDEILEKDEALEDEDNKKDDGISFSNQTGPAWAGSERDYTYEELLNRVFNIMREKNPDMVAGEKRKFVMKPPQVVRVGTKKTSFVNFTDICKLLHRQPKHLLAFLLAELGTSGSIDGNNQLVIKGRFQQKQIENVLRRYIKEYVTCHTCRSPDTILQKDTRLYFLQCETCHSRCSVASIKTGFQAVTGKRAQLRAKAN
UniProt O75822, whole entry, looked up: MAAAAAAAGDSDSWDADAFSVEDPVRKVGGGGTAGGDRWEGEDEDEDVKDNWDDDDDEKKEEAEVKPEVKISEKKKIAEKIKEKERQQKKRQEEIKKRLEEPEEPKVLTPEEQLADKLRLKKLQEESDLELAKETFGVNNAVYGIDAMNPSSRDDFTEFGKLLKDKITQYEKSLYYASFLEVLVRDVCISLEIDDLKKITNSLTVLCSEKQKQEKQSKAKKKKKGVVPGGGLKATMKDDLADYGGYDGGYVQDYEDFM
UniProt O43768: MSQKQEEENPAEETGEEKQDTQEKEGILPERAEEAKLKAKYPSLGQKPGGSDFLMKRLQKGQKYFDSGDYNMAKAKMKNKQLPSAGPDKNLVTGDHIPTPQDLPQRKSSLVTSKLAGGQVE
UniProt O75821, whole entry, looked up: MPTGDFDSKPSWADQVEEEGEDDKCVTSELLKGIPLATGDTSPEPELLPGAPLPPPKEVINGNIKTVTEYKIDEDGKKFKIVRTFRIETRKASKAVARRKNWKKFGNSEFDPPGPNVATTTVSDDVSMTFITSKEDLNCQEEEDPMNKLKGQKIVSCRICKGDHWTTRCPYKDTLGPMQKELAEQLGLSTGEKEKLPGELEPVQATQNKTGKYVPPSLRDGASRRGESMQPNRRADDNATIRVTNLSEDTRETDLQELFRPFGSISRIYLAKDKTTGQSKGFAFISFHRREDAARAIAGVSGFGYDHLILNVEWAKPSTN
UniProt Q04637, whole entry, looked up: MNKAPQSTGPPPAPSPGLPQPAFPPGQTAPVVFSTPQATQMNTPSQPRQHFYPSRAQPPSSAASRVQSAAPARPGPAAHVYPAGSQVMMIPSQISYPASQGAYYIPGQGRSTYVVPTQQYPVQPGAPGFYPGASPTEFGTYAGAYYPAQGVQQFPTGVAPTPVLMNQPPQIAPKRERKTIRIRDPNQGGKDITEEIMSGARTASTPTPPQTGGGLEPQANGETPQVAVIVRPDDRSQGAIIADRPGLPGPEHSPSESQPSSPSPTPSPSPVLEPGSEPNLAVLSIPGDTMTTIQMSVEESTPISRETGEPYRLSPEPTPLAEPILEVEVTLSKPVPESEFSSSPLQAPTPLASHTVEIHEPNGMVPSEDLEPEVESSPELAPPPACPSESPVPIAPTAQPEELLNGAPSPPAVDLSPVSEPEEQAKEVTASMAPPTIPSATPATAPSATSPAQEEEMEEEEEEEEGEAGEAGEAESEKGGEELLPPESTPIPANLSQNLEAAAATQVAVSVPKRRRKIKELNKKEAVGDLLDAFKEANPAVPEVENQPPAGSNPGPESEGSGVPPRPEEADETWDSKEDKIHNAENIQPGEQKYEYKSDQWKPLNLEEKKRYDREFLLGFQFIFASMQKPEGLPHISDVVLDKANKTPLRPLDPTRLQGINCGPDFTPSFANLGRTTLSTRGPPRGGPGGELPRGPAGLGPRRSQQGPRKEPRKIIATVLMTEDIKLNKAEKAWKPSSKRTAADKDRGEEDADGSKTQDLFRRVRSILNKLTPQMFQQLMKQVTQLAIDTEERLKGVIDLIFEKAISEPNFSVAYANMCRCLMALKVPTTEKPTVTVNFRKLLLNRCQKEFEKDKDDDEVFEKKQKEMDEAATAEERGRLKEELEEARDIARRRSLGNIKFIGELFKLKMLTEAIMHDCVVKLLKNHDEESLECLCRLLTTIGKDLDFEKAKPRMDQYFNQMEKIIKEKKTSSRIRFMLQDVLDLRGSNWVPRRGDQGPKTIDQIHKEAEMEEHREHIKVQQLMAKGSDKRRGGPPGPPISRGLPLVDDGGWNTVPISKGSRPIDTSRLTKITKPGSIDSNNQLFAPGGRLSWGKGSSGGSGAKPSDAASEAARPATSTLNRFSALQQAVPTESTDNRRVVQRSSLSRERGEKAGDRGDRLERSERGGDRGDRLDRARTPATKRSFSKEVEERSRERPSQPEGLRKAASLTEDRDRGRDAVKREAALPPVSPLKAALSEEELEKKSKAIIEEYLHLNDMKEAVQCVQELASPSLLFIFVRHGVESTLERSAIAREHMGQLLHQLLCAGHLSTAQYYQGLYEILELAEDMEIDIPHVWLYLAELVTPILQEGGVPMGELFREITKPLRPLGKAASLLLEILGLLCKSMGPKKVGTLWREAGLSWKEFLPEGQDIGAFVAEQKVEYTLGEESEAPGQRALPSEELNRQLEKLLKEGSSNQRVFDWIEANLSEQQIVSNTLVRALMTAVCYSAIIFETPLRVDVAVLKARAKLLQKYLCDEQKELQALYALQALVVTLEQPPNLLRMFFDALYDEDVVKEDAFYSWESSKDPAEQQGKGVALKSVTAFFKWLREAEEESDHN
UniProt Q7L2H7, whole entry, looked up: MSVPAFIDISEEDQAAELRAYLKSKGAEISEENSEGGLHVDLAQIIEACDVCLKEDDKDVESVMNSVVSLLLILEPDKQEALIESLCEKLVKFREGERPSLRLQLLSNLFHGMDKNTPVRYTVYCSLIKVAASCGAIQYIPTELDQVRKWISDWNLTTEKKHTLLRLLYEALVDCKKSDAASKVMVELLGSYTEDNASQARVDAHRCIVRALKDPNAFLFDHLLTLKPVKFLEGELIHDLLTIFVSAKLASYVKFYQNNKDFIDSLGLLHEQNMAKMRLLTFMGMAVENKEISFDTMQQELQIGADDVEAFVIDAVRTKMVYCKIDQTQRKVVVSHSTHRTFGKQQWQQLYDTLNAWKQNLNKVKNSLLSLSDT
UniProt Q9H4G0, whole entry, looked up: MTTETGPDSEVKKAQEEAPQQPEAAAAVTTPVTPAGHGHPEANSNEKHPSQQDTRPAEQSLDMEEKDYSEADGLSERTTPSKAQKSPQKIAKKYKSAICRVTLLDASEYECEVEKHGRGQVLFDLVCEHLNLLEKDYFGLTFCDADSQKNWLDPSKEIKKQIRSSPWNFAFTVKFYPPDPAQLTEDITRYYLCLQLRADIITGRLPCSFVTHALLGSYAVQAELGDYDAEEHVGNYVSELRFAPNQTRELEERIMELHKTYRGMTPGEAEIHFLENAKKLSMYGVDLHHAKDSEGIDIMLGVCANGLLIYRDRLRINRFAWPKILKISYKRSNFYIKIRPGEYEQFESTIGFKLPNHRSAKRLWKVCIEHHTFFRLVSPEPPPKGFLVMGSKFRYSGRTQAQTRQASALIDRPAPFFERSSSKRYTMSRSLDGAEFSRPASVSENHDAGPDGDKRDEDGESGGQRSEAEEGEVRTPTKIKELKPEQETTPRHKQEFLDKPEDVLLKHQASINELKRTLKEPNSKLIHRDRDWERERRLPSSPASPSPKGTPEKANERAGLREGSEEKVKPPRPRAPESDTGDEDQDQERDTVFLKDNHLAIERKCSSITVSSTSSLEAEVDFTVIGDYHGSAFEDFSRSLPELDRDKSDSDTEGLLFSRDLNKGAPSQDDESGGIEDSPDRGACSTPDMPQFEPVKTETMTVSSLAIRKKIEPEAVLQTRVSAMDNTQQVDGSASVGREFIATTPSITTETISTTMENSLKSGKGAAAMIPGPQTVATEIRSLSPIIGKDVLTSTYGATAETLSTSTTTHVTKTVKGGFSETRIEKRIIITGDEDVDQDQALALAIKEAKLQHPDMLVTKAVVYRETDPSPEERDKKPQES
UniProt Q9NPA8: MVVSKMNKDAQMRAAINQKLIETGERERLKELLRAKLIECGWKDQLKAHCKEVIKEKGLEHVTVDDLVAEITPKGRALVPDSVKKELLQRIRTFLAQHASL
UniProt Q9UI10, whole entry, looked up: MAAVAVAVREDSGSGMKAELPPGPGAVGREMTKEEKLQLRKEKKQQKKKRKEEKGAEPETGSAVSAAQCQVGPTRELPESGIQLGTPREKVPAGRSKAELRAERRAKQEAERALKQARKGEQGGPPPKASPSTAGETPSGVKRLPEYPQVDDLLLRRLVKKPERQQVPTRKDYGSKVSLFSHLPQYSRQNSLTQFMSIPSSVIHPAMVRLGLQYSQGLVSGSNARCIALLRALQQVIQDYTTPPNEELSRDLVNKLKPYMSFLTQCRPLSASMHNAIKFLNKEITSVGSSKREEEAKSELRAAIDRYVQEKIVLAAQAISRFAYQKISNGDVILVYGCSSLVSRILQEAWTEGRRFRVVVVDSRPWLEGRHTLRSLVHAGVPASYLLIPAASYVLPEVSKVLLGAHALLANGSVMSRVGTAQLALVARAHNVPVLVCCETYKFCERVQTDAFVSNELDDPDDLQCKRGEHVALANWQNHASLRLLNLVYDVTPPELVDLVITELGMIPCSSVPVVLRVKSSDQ
UniProt Q13347, whole entry, looked up: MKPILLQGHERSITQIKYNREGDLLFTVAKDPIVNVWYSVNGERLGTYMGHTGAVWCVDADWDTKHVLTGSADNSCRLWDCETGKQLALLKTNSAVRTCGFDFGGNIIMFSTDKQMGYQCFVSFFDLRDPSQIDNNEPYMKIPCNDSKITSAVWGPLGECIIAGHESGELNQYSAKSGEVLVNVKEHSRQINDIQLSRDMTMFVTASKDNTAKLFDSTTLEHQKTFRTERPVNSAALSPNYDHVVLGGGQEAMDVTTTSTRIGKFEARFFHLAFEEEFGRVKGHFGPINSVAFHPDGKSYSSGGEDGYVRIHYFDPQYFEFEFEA

log2 fold change, inactive:
ELL (UniProt P55199) -0.016
EPHX2 (UniProt P34913) -0.036
ENTPD5 (UniProt O75356) 0.01
EIF2S2 (UniProt P20042) -0.03
EIF3J (UniProt O75822) -0.016
ENSA isoform 3 (UniProt O43768) -0.025
EIF3G (UniProt O75821) -0.001
ERCC2 (UniProt P18074) 0.049
EIF4G1 (UniProt Q04637) 0.014
EIF3M (UniProt Q7L2H7) 0.013
EPB41L1 (UniProt Q9H4G0) 0.127
ENY2 (UniProt Q9NPA8) -0.03

compound: NC(=O)c1cnc(N[C@@H]2CCCC[C@@H]2N)nc1Nc1cccc(-n2nccn2)c1; test: as above
In short: as §1

log2 fold change, inactive:
EPN1 (UniProt Q9Y6I3) -0.012
EMC3 (UniProt Q9P0I2) 0.039
EIF3K (UniProt Q9UBQ5) -0.009
EMC1 (UniProt Q8N766) 0.007
EMC10 (UniProt Q5UCC4) -0.008
ELP4 (UniProt Q96EB1) -0.01
EPB41L2 (UniProt O43491) -0.003
EIF2B4 (UniProt Q9UI10) 0.039
EPHX1 (UniProt P07099) -0.019
ERGIC2 (UniProt Q96RQ1) 0.043
ERBIN isoform 8 (UniProt Q96RT1) 0
EIF3A (UniProt Q14152) -0.005
ELP1 (UniProt O95163) 0.015
ELP5 isoform 4 (UniProt Q8TE02) 0.008
EMP3 (UniProt P54852) -0.035
ELOB (UniProt Q15370) -0.044
EIF2B5 (UniProt Q13144) -0.01
ELAC2 (UniProt Q9BQ52) 0.009
ERCC6L (UniProt Q2NKX8) 0.021
EPS15L1 isoform 2 (UniProt Q9UBC2) 0.008
EMC4 (UniProt Q5J8M3) -0.007
EIF3I (UniProt Q13347) 0
EIF3C (UniProt Q99613) 0.002
ELL (UniProt P55199) 0.05
EPHX2 (UniProt P34913) -0.021
ENTPD5 (UniProt O75356) 0.012
EIF2S2 (UniProt P20042) 0.008
EIF3J (UniProt O75822) -0.011
ENSA isoform 3 (UniProt O43768) -0.029
EIF3G (UniProt O75821) -0.01
ERCC2 (UniProt P18074) 0.009
EIF4G1 (UniProt Q04637) 0.003
EIF3M (UniProt Q7L2H7) -0.008
EPB41L1 (UniProt Q9H4G0) 0.011
ENY2 (UniProt Q9NPA8) -0.022

compound: NC1(c2ccc(-c3nc4ccn5c(=O)[nH]nc5c4cc3-c3ccccc3)cc2)CCC1; test: as above
In short: as §1

log2 fold change, inactive:
EPN1 (UniProt Q9Y6I3) 0.014
EMC3 (UniProt Q9P0I2) -0.016
EIF3K (UniProt Q9UBQ5) 0.004
EMC1 (UniProt Q8N766) -0.01
EMC10 (UniProt Q5UCC4) -0.027
ELP4 (UniProt Q96EB1) -0.032
EPB41L2 (UniProt O43491) -0.005
EIF2B4 (UniProt Q9UI10) -0.021
EPHX1 (UniProt P07099) -0.006
ERGIC2 (UniProt Q96RQ1) 0
ERBIN isoform 8 (UniProt Q96RT1) 0.001
EIF3A (UniProt Q14152) -0.035
ELP1 (UniProt O95163) -0.028
ELP5 isoform 4 (UniProt Q8TE02) -0.026
EMP3 (UniProt P54852) -0.008
ELOB (UniProt Q15370) -0.042
EIF2B5 (UniProt Q13144) -0.011
ELAC2 (UniProt Q9BQ52) 0.004
ERCC6L (UniProt Q2NKX8) -0.023
EPS15L1 isoform 2 (UniProt Q9UBC2) -0.013
EMC4 (UniProt Q5J8M3) -0.041
EIF3I (UniProt Q13347) -0.013
EIF3C (UniProt Q99613) -0.018
ELL (UniProt P55199) 0.01
EPHX2 (UniProt P34913) -0.015
ENTPD5 (UniProt O75356) -0.006
EIF2S2 (UniProt P20042) -0.007
EIF3J (UniProt O75822) -0.009
ENSA isoform 3 (UniProt O43768) 0.021
EIF3G (UniProt O75821) 0.019
ERCC2 (UniProt P18074) -0.016
EIF4G1 (UniProt Q04637) 0.005
EIF3M (UniProt Q7L2H7) 0.005
EPB41L1 (UniProt Q9H4G0) -0.079
ENY2 (UniProt Q9NPA8) -0.007

— the supplement of paper PMC10849652
